How the values were obtained:
[1] = Coated metal coupon cleaning, gravimetric; conditions: in words
Description: (§1) A sample comprising 25 volume percent (A.) 4-bromo-3-chloro-3,4,4-trifluoro-1-butene and 75 volume percent (B.) 1-chloro-2,2,2-trifluoroethyl difluoromethyl ether was added to several beakers, each containing a metal coupon completely coated with one of the following materials: Mil Spec 83282 hydraulic oil, Mil Spec 7808 engine oil, Krytox fluorocarbon grease and Mil Spec 81322 aviation grease. Two batches were subjected to 15 minute immersion with 15 mL of solvent mixture but one was exposed to ultrasonic vibrations and the other kept static. Afterwards, the coupons were removed and weighed for gravimetric analysis.
as §1, with “50” for “25”, “50” for “75”
Two batches were subjected to 15 minute immersion with 15 mL of solvent mixture but one was exposed to ultrasonic vibrations and the other kept static. Afterwards, the coupons were removed and weighed for gravimetric analysis.

[2] = Autogenous ignition temperature, ASTM G72; conditions: ASTM method G72
[3] = Ignition sensitivity to mechanical impact in liquid oxygen, ASTM G86; conditions: ASTM G86 pass/fail
[4] = Solvency with oxygen handling system contaminant; conditions: in words, relative to CFC-113
[5] = Elastomer compatibility

| Structure (SMILES) | solvency of Mil-spec 7808 engine oil [1] | solvency of Mil-spec 83232 hydraulic fluid [1] | AIT category [2] | ignition sensitivity to mechanical impact in liquid oxygen [3] | solvency performance with Jet Lube [4] | also measured |
| --- | --- | --- | --- | --- | --- | --- |
| FC(F)OC(Cl)C(F)(F)F (stereo not drawn) [Compound B, 1-chloro-2,2,2 trifluoroethyl difluoromethyl ether] | provides solvency | provides solvency | B or C | passed | poor performance |  |
| COC(F)(F)C(F)(F)C(F)(F)C(F)(F)F [methyl perfluorobutyl ether] |  |  |  |  | poor performance |  |
| FC(OC(F)(F)C(F)(F)C(F)(F)F)C(F)(F)F (stereo not drawn) [heptafluoropropyl 1,2,2,2-tetrafluoroethyl ether] |  |  |  |  | poor performance |  |
| COC(C(F)(F)F)C(F)(F)F [E, methyl 2,2,2-trifluoroethyl-1-(trifluoromethyl)ether] |  |  | B or C | passed |  |  |
| FC(F)(Cl)C(F)(Cl)Cl [CFC-113, 1,1,2-trichloro-1,2,2-trifluoroethane] |  |  |  |  |  | effect on Viton and Neoprene [5]: significantly affected |
| CCOC(F)(F)C(F)(F)C(F)(F)C(F)(F)F [ethyl-perfluorobutyl ether] |  |  |  |  |  | solvency performance with Jet Lube ([4]; listed as CH3—CH2—O—(CF2)3—CF3): poor performance; solvency performance with Jet Lube ([4]; listed as ethyl nonafluorobutyl ether): inferior to that of CFC-113 |
| FC(F)OC(F)(F)C(F)Cl (stereo not drawn) [Compound C, 2-chloro-1,1,2-trifluoroethyl difluoromethyl ether] | provides solvency | provides solvency | B or C | passed | poor performance |  |
| FC(F)(F)C(=CBr)C(F)(F)F [D, 1-bromo-2-(trifluoromethyl)-3,3,3-trifluoropropene] |  |  | B or C |  |  |  |
| C=CC(F)(Cl)C(F)(F)Br (stereo not drawn) [A, 4-bromo-3-chloro-3,4,4-trifluoro-1-butene] | excellent solvency | excellent solvency | B or C | does not pass |  | ignition sensitivity to mechanical impact in liquid oxygen ([3]; listed as 4-bromo-3-chloro-3,4,4-trifluoro-1-butene): did not pass; effect on Viton and Neoprene [5]: significantly affected |
